This is an account of results in paper PMC3349659.

Results are given in words; binding and its absence hold for the method and conditions named. In cells and extracts the contact can be indirect.

In this test the target is T1, mCherry-Rad (mouse) (UniProt O88667).
T1 sequence: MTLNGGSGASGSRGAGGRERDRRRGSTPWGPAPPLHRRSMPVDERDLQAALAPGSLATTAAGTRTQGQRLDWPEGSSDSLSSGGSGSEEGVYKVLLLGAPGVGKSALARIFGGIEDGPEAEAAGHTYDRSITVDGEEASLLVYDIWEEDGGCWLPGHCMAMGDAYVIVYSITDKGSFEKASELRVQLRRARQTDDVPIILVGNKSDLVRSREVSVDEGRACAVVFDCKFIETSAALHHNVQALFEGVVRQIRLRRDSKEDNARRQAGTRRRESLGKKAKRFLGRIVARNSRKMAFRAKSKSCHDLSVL
The test is described as follows: co-IP; co-transfected HEK 293 cells, lysate in 50 mmol/L Tris-HCl, 150 mmol/L NaCl, 1% NP-40; precipitated with anti-Rem, anti-Gem, anti-Rem2 or anti-Rad antibody and protein G beads; blot with anti-GFP.

With “CFP-tagged α1C C-terminus (domain or fragment)”, the binding result was “no binding”.

As to “CFP-tagged α1C III–IV loop (domain or fragment)”, the binding result was “no binding”. As to “CFP-tagged α1C II–III loop (domain or fragment)”, the binding result is reported as “no binding”. Regarding “CFP-tagged α1C I–II loop (domain or fragment)”, the binding result is recorded as “no binding”.
